According to the supplement of paper PMC10849652:
The other results are listed elsewhere or left out.

The chains behind the UniProt entries cited, without tags or fusion partners. Where a name states a change or a piece, a line headed by the entry shows the natural chain unless it says otherwise.
UniProt P62995: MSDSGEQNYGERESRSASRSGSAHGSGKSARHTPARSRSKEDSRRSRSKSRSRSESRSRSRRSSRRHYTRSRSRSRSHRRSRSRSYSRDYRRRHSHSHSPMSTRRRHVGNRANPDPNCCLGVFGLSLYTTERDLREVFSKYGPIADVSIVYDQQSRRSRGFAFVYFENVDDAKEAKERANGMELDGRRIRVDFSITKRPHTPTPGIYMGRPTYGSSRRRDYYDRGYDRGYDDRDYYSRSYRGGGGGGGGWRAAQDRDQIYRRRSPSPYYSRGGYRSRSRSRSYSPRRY
UniProt Q9P0T7: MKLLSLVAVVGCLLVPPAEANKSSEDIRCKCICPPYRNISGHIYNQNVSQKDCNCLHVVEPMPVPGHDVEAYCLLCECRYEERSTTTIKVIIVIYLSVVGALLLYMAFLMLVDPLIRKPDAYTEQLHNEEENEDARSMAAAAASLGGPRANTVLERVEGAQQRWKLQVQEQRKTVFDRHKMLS
UniProt Q15025: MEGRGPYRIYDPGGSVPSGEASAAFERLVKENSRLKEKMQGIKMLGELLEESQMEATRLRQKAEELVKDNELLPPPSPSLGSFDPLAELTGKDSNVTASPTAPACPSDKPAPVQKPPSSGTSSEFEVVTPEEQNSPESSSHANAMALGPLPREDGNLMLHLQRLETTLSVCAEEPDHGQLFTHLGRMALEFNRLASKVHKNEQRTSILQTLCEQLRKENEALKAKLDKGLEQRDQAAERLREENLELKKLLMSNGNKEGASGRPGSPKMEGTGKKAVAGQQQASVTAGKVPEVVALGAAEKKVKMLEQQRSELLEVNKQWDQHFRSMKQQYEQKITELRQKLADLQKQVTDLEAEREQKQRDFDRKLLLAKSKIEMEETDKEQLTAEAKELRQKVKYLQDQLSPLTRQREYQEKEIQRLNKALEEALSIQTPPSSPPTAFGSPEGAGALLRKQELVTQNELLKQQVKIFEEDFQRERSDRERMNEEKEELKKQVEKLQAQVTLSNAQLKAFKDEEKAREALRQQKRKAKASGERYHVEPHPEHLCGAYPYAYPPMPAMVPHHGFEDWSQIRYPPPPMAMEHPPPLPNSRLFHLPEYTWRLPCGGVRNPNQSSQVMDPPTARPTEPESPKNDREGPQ
UniProt Q8N9V7: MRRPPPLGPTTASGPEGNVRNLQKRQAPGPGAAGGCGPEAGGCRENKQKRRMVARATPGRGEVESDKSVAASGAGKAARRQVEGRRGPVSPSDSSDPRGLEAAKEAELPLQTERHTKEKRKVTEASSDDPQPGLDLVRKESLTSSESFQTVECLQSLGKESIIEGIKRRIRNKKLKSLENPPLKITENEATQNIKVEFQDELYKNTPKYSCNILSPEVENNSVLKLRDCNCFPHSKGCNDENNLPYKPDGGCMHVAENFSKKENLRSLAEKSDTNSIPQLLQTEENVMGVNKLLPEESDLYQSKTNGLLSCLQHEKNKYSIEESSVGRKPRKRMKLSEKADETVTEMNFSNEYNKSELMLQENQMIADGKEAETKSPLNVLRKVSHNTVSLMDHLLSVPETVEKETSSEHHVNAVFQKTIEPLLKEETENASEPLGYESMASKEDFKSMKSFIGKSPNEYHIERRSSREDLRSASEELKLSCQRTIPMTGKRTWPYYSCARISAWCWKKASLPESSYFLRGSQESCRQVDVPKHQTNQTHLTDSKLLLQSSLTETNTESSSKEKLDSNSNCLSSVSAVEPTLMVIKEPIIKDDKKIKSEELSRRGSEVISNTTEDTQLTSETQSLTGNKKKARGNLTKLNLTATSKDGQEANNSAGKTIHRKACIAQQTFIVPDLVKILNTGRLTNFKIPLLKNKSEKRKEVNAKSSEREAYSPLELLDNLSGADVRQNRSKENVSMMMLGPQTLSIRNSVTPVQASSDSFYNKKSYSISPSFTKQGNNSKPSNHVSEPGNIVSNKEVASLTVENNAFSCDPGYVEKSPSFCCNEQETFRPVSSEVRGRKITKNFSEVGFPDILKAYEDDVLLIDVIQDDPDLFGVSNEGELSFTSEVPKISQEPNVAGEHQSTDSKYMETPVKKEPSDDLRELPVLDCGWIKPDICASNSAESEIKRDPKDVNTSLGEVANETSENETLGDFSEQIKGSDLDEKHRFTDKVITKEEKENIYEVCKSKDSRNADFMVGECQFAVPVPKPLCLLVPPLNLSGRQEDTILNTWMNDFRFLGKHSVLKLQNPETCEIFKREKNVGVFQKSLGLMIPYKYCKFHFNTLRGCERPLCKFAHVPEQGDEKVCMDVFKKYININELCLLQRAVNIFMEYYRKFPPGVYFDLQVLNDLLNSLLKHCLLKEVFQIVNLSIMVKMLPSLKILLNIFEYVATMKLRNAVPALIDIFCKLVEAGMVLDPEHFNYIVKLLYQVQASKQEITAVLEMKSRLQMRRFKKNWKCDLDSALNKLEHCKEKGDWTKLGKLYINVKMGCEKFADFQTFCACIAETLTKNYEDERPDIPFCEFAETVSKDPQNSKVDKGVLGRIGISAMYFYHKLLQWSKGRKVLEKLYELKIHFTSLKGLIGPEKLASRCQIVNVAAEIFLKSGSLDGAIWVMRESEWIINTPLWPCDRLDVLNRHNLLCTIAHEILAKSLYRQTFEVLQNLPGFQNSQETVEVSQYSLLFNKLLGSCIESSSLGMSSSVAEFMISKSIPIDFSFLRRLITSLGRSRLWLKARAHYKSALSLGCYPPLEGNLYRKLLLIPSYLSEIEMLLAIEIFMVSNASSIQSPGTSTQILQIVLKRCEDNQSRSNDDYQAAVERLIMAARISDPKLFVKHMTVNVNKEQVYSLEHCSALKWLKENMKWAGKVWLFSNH
UniProt Q9H3S4: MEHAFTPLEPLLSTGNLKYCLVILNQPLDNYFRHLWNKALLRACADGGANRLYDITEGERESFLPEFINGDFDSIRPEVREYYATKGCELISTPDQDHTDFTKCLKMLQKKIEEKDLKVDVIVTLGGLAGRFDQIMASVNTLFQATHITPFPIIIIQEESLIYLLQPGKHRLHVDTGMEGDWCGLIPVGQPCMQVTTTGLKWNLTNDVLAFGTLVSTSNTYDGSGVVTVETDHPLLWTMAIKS
UniProt Q96A57: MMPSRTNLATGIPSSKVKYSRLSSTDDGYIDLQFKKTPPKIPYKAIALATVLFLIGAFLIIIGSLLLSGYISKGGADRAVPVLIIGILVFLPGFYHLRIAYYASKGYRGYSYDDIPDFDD
UniProt P06753, whole entry, looked up: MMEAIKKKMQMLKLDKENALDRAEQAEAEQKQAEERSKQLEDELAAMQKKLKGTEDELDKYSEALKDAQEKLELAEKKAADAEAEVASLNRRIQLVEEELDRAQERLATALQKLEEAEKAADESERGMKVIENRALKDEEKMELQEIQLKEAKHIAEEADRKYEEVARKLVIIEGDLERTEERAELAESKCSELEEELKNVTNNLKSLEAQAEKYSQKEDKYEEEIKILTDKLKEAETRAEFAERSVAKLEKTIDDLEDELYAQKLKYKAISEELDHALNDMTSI
UniProt Q71RG4: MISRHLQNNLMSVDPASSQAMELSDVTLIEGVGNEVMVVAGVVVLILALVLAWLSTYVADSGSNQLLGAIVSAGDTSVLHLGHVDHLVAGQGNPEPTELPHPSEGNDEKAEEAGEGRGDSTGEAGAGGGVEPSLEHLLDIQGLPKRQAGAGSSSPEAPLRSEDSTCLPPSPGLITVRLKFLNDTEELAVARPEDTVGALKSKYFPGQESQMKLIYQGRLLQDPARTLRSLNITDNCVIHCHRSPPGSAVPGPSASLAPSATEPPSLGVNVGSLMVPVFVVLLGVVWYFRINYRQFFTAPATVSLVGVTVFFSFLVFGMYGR
UniProt Q13595: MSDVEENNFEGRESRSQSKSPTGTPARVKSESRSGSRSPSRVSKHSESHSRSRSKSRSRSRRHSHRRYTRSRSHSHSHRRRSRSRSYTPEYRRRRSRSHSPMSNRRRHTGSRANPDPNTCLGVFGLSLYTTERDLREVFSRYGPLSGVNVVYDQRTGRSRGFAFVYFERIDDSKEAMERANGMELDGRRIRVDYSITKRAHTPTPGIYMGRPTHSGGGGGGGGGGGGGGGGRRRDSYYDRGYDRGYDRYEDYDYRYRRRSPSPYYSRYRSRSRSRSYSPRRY
UniProt P02585, whole entry, looked up: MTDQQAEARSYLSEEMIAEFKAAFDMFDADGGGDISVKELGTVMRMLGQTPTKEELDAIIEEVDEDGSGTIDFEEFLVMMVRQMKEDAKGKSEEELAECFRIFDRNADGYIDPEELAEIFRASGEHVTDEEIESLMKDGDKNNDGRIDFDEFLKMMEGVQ
UniProt Q12767: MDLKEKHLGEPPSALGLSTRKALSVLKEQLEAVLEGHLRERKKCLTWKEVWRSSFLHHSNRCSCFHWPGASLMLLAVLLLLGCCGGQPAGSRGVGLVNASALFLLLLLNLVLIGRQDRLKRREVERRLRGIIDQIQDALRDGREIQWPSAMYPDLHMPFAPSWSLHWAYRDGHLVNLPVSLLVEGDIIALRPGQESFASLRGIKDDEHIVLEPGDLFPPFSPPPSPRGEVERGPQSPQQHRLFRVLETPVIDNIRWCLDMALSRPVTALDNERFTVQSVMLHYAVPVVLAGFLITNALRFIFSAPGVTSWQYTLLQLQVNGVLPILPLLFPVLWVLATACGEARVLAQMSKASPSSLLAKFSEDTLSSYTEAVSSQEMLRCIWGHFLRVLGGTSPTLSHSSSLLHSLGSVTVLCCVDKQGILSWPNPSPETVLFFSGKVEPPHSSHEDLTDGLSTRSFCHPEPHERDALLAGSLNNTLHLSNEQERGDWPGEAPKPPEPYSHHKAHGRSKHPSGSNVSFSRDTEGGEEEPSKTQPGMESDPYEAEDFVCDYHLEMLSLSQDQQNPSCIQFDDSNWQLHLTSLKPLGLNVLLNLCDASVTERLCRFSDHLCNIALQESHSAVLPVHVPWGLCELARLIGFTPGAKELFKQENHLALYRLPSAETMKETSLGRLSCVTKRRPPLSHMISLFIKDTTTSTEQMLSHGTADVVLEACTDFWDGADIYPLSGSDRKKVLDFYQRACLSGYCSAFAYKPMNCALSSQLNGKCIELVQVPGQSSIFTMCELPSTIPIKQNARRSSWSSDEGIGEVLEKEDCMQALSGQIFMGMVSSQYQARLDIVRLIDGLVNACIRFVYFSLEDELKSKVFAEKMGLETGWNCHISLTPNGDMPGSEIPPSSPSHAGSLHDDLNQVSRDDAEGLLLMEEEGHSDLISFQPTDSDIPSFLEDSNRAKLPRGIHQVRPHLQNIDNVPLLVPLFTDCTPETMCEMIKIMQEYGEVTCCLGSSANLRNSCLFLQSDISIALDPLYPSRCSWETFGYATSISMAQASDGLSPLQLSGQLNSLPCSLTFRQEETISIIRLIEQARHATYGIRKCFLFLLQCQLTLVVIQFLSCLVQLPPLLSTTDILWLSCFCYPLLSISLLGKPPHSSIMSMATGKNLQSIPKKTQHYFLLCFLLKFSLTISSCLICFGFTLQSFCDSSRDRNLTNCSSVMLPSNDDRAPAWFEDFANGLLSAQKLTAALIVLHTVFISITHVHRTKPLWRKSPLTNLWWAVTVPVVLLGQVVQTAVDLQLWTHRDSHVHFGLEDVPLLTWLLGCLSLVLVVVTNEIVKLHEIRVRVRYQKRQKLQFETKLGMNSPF
UniProt Q9BVT8: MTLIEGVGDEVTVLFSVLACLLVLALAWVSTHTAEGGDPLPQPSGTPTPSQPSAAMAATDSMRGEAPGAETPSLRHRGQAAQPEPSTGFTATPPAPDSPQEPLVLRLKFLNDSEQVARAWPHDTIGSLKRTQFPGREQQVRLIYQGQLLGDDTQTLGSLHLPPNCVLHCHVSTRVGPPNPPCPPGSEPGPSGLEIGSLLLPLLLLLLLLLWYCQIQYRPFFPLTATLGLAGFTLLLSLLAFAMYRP
UniProt Q9NZR1: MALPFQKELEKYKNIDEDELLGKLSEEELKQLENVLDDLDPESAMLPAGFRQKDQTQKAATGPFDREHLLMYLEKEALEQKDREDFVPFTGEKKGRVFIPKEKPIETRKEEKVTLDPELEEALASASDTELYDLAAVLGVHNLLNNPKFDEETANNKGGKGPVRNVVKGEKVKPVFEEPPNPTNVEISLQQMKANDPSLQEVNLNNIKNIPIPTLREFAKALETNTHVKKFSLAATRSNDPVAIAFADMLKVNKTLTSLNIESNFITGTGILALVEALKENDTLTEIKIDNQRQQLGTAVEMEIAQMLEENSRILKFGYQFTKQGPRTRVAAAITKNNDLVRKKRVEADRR
UniProt Q9H1E5: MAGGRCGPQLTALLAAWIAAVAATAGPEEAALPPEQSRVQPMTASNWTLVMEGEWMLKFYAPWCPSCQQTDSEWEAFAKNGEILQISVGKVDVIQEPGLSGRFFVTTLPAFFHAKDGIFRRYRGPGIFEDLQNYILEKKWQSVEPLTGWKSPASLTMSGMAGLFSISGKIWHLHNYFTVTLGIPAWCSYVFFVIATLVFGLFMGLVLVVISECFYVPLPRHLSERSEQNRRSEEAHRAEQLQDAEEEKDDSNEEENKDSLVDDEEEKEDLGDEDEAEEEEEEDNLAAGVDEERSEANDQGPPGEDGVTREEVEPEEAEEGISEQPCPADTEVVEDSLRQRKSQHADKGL
UniProt Q96B49: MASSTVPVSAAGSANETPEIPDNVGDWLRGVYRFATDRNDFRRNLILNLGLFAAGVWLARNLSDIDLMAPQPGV

compound: CC(C)(C)Cn1c(N)nc2ccc(-c3[nH]c(C(C)(C)C)nc3-c3ccc(F)cc3)nc21 [ralimetinib]; test: log2 fold change, soluble protein after heating vs DMSO (PISA); higher = thermal stabilisation; K562 lysate, 10 uM; active = over 0.2 and 3.5 SD of the protein, either way, in both replicates (recomputed)
Outline: (§1)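 The values are log-two fold changes in thermal stability compared with solvent controls and come from duplicates. They were obtained by TMTpro 16plex LC-MS/MS, with channel sums equalised, on the supernatant after 21,000xg for 90 min. That supernatant came from crude K562 extract at 1 mg/mL protein treated with 10 μM compound for 30 min, heated for 3 min across 48°C-58°C, pooled and brought to 0.5% NP-40 at 4°C.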

log2 fold change, inactive:
TRA2B (UniProt P62995) -0.013
TMEM9 (UniProt Q9P0T7) 0.046
TNIP1 (UniProt Q15025) 0.025
TP53RK (UniProt Q96S44) 0.019
TOPAZ1 (UniProt Q8N9V7) 0.256
TPCN1 isoform 3 (UniProt Q9ULQ1) -0.095
TMEM19 (UniProt Q96HH6) 0.169
TPM1 (UniProt H7BYY1) -0.035
TPK1 (UniProt Q9H3S4) -0.047
TMEM230 isoform 2 (UniProt Q96A57) 0.102
TPM3 (UniProt P06753) -0.028
TMUB2 (UniProt Q71RG4) -0.019
TMEM248 (UniProt Q9NWD8) -0.261
TMPPE (UniProt Q6ZT21) 0.065
TRA2A (UniProt Q13595) -0.079
TNNC2 (UniProt P02585) 0.015
TNKS (UniProt O95271) -0.04
TMEM94 isoform 2 (UniProt Q12767) -0.035
TMUB1 (UniProt Q9BVT8) 0.075
TMOD2 (UniProt Q9NZR1) 0.029
TPRG1L (UniProt Q5T0D9) -0.069
TMX4 (UniProt Q9H1E5) 0.008
TMEM35B (UniProt Q8NCS4) 0.099
TPM3 isoform 3 (UniProt P06753) 0.145
TOMM22 (UniProt Q9NS69) -0.001

compound: CC(C)(O)CC(=O)NCCn1ccc2ncnc(Nc3ccc(Oc4cccc(C(F)(F)F)c4)c(Cl)c3)c21; test: as above
Outline: as §1

log2 fold change, inactive:
TRA2B (UniProt P62995) -0.024
TMEM9 (UniProt Q9P0T7) -0.043
TNIP1 (UniProt Q15025) -0.04
TP53RK (UniProt Q96S44) -0.008
TOPAZ1 (UniProt Q8N9V7) -0.123
TPCN1 isoform 3 (UniProt Q9ULQ1) -0.068
TMEM19 (UniProt Q96HH6) 0.007
TPM1 (UniProt H7BYY1) 0.068
TPK1 (UniProt Q9H3S4) -0.027
TMEM230 isoform 2 (UniProt Q96A57) -0.055
TPM3 (UniProt P06753) 0.022
TMUB2 (UniProt Q71RG4) -0.044
TMEM248 (UniProt Q9NWD8) -0.02
TMPPE (UniProt Q6ZT21) 0.023
TRA2A (UniProt Q13595) -0.013
TNNC2 (UniProt P02585) 0.013
TNKS (UniProt O95271) 0.022
TMEM94 isoform 2 (UniProt Q12767) 0.064
TMUB1 (UniProt Q9BVT8) 0.01
TMOD2 (UniProt Q9NZR1) -0.131
TPRG1L (UniProt Q5T0D9) 0.143
TMX4 (UniProt Q9H1E5) -0.081
TMEM35B (UniProt Q8NCS4) -0.031
TPM3 isoform 3 (UniProt P06753) 0.093
TOMM22 (UniProt Q9NS69) -0.047

compound: CC(C)C1=C2N=C(C=C(N2N=C1)NCC3=CC=CC=C3)NCCCCCCN; test: as above
Outline: as §1

log2 fold change, inactive:
TRA2B (UniProt P62995) 0.049
TMEM9 (UniProt Q9P0T7) -0.047
TNIP1 (UniProt Q15025) 0.023
TP53RK (UniProt Q96S44) 0.007
TOPAZ1 (UniProt Q8N9V7) 0.01
TPCN1 isoform 3 (UniProt Q9ULQ1) -0.001
TPBG (UniProt Q13641) 0.071
TMEM19 (UniProt Q96HH6) 0.129
TNRC6A (UniProt Q8NDV7) -0.081
TPM1 (UniProt H7BYY1) 0.037
TPK1 (UniProt Q9H3S4) 0.008
TMEM8A (UniProt Q9HCN3) -0.064
TMEM230 isoform 2 (UniProt Q96A57) 0.114
TPM3 (UniProt P06753) 0.013
TOMM6 (UniProt Q96B49) -0.035
TMUB2 (UniProt Q71RG4) 0.045
TOR1AIP1 (UniProt Q5JTV8) 0.252
TOM1 (UniProt O60784) -0.393
TMEM248 (UniProt Q9NWD8) -0.233
TMPPE (UniProt Q6ZT21) -0.01
TRA2A (UniProt Q13595) 0.21
TNIP2 (UniProt Q8NFZ5) 0.08
TNNC2 (UniProt P02585) 0.031
TNKS (UniProt O95271) -0.045
TNIK (UniProt C9J338) 0.025
TMEM94 isoform 2 (UniProt Q12767) 0.034
TMUB1 (UniProt Q9BVT8) 0.013
TMOD2 (UniProt Q9NZR1) 0.005
TPRG1L (UniProt Q5T0D9) -0.024
TMX4 (UniProt Q9H1E5) -0.016
TMEM35B (UniProt Q8NCS4) 0.037
TPM3 isoform 3 (UniProt P06753) -0.125
TOMM22 (UniProt Q9NS69) 0.007
